Experiment [1] concerns the target AR100Q (human) (UniProt P10275). The experiment in a line: proximity ligation assay (PLA), MN1 cells, with Lsd1 silencing.
For experiment [2] the target is unchanged. The experiment in a line: proximity ligation assay (PLA), MN1 cells, vehicle or DHT.

Sequences of proteins named here, by UniProt entry; tags and fusion partners are left off. A change or cut given only in a name is not applied to a line headed by its entry.
UniProt P10275: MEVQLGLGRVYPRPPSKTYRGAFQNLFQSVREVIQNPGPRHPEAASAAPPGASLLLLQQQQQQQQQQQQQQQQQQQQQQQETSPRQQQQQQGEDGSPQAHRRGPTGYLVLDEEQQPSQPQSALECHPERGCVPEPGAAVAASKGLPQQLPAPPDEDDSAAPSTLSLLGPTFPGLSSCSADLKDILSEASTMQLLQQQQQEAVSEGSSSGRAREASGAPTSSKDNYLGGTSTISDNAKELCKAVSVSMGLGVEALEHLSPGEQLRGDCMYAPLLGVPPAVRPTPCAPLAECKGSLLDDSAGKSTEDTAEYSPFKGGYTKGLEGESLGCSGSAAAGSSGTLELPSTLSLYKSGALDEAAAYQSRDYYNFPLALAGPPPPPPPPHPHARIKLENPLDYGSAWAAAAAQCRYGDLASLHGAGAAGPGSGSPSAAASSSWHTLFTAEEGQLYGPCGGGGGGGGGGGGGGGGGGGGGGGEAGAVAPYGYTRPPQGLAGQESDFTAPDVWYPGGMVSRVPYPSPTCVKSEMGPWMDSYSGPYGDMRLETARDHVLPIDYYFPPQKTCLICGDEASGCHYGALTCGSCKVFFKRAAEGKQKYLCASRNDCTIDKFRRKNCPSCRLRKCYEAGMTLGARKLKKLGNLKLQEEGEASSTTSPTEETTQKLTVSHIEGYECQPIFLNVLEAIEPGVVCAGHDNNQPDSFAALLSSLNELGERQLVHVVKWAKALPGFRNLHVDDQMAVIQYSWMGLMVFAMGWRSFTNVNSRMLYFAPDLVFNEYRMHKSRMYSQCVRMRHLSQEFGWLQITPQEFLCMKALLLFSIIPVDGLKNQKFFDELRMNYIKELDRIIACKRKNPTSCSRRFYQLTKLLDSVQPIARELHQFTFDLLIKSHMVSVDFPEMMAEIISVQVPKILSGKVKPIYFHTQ
UniProt Q6NZB1: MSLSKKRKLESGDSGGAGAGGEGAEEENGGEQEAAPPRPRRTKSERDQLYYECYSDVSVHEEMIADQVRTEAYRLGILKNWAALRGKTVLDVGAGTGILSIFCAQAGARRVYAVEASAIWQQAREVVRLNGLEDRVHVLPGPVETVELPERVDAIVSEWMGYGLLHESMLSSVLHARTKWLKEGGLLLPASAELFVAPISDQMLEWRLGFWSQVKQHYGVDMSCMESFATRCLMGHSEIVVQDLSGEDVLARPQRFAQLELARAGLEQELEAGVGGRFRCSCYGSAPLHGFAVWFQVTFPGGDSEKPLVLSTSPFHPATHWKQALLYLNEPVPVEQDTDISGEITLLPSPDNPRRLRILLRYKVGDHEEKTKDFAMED

These are yes or no findings as the source states them, for the method shown. In cells and extracts the contact can be indirect. Binding can be weak; no strength is given.

Turning to “endogenous PRMT6 (mouse; MN1 cells and quadriceps muscle) (from UniProt Q6NZB1 1-378) (enzyme)”, the binding result with AR100Q (human) [1] and with AR100Q (human) [2] was “binds” in each case.

Values taken from US20260207649A1, “LSD1 INHIBITOR AND PRMT6 INHIBITOR FOR USE IN THE TREATMENT OF A DISEASE ASSOCIATED WITH GAIN-OF-FUNCTION OF ANDROGEN RECEPTOR (AR) AND/OR WITH OVEREXPRESSION OF AN AR COACTIVATOR” (FONDAZIONE TELETHON ETS(30%), priority 2022, published 2026).
